{
  "source": "paper PMC5958128",
  "binders": {"B1": {"name": "70 kDa peroxisomal membrane protein (PMP70) (protein, UniProt P28288 1-659)", "chain": "MAAFSKYLTARNSSLAGAAFLLLCLLHKRRRALGLHGKKSGKPPLQNNEKEGKKERAVVDKVFFSRLIQILKIMVPRTFCKETGYLVLIAVMLVSRTYCDVWMIQNGTLIESGIIGRSRKDFKRYLLNFIAAMPLISLVNNFLKYGLNELKLCFRVRLTKYLYEEYLQAFTYYKMGNLDNRIANPDQLLTQDVEKFCNSVVDLYSNLSKPFLDIVLYIFKLTSAIGAQGPASMMAYLVVSGLFLTRLRRPIGKMTITEQKYEGEYRYVNSRLITNSEEIAFYNGNKREKQTVHSVFRKLVEHLHNFILFRFSMGFIDSIIAKYLATVVGYLVVSRPFLDLSHPRHLKSTHSELLEDYYQSGRMLLRMSQALGRIVLAGREMTRLAGFTARITELMQVLKDLNHGKYERTMVSQQEKGIEGVQVIPLIPGAGEIIIADNIIKFDHVPLATPNGDVLIRDLNFEVRSGANVLICGPNGCGKSSLFRVLGELWPLFGGRLTKPERGKLFYVPQRPYMTLGTLRDQVIYPDGREDQKRKGISDLVLKEYLDNVQLGHILEREGGWDSVQDWMDVLSGGEKQRMAMARLFYHKPQFAILDECTSAVSVDVEGYIYSHCRKVGITLFTVSHRKSLWKHHEYYLHMDGRGNYEFKQITEDTVEFGS"}},
  "target": "T1, PEX2-mCitrine (human) (UniProt P28328)",
  "T1 sequence": "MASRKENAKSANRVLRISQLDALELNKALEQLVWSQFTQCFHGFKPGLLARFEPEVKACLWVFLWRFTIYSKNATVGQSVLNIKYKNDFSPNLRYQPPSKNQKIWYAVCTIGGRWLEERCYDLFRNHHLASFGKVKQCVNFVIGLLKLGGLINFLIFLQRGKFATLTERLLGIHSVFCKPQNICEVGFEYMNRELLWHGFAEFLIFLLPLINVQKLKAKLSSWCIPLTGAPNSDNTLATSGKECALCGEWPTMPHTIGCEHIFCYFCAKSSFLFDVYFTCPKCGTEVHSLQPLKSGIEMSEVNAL",
  "assay": "co-IP; HeLa cells transfected with PEX2-mCitrine; lysate in RIPA buffer precipitated with GFP-TrapA nanobody on agarose beads; second wash in 500 mM NaCl; blot with anti-GFP and anti-PMP70",
  "note": "These are yes or no findings as the source states them, for the method shown. Binding seen in cells or lysates may run through a third protein. Some entries that bind do so weakly or less than the wild type.",
  "data": [
    {"binder": "B1", "values": [
      {"measurement": "binding", "result": "binds"}
    ]}
  ]
}
